Literature values as cited in US5248771A, “Process for preparing no-carrier-added radiohalogenated vinyl nucleosides” (Triumf, priority 1991, dated 1993).
For at least one compound, name, drawing or mass did not settle the structure.

System: virus species which seem to lack virus-specific thymidine kinase
Conditions: cited from earlier work

O=c1[nH]c(=O)n([C@H]2C[C@H](O)[C@@H](CO)O2)cc1/C=C/Br [bromo vinyl deoxyuridine]
sensitivity of viruses to inhibition: sensitive to inhibition
